Data as given in publication doi:10.1101/2023.03.23.534032.
These are yes or no findings as the source states them, for the method shown. Some binding calls cover weakened binding; strength is not graded here. For some assays here: Sequences can lack the tags named with a protein.

Sequences of proteins named here, by UniProt entry; tags and fusion partners are left off. Residues count along the entry.
UniProt P52948, residues 1-499: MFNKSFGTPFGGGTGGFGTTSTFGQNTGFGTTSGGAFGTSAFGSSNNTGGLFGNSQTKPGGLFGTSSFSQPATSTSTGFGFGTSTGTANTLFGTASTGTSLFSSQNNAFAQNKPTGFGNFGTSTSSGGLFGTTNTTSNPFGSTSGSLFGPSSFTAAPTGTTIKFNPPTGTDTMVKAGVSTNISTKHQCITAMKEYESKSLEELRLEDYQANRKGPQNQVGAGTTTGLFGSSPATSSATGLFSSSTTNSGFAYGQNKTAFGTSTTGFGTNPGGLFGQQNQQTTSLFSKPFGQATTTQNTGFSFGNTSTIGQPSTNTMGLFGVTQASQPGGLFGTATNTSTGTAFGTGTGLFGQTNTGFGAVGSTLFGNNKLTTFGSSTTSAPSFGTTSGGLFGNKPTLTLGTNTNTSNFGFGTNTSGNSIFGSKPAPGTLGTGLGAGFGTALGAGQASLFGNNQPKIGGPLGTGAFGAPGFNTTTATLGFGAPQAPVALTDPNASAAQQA
UniProt P35658, residues 1210-2090: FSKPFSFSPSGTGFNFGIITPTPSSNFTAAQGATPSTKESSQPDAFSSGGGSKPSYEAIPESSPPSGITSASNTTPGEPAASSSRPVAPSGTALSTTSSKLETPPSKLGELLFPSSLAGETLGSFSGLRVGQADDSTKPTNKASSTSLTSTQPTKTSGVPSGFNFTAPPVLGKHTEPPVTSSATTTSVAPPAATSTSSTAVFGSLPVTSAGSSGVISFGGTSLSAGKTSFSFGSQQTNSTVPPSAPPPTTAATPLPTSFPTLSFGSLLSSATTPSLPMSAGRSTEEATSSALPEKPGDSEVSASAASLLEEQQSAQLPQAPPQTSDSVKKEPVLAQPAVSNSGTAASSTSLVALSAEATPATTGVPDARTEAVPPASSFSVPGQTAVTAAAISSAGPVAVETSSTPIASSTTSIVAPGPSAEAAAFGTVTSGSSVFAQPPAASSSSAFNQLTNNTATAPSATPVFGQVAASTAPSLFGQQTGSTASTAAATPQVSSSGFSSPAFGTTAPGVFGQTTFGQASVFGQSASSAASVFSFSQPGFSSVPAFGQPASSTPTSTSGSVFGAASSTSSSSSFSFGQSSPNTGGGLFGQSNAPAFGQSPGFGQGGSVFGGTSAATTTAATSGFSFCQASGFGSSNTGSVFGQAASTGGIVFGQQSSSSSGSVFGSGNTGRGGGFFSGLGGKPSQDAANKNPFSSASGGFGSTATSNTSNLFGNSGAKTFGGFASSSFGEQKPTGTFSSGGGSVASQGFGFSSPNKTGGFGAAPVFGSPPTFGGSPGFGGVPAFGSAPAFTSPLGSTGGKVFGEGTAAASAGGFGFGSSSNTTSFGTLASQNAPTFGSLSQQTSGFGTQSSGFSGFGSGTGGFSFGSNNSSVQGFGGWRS
UniProt Q96HA1: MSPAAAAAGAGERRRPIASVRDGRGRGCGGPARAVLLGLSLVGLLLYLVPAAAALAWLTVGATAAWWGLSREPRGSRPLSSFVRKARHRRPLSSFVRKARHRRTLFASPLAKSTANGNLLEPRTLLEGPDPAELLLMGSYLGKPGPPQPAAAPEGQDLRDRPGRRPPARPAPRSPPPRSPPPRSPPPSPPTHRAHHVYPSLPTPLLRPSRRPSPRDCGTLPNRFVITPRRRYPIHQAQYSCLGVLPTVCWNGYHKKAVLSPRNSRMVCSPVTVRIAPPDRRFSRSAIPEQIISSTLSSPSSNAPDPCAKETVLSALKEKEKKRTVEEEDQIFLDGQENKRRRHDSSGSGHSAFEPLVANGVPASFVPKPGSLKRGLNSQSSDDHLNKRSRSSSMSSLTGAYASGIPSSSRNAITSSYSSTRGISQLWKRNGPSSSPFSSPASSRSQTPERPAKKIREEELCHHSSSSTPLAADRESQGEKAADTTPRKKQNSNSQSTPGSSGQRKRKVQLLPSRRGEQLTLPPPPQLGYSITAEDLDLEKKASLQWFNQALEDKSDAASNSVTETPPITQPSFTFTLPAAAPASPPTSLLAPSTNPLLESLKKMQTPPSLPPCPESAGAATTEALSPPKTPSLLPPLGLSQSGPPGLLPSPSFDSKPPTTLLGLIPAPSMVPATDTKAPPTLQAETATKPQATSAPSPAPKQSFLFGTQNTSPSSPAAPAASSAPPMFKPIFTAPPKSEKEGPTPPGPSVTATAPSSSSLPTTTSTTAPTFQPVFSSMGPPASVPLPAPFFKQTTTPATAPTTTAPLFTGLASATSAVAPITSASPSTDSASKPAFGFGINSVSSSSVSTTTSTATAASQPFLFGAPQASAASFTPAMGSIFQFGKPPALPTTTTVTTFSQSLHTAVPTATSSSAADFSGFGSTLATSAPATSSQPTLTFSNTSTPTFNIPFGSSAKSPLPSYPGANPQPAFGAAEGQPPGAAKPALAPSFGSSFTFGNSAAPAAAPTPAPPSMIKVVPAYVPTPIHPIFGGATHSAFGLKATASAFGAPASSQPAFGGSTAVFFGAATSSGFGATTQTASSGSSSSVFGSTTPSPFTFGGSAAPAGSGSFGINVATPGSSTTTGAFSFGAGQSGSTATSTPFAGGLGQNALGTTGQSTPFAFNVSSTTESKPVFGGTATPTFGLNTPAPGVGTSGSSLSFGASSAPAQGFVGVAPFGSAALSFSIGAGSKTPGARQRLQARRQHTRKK

What was measured:
Test in all cases: fluorescence fluctuation spectroscopy
[1] = molecular target: GFP-Nup98 FG-domain (Nup98 1-499) (human) (UniProt P52948)
[2] = molecular target: GFP-Nup214 FG-domain (Nup214 1210-2090) (human) (UniProt P35658)
GFP-Pom121 (human) = GFP-Pom121 (human) (UniProt Q96HA1)
GFP-Nup42 (human) = GFP-Nup42 (human) (UniProt O15504)
[3] = molecular target: T1, GFP-Nup58 (human), Q9BVL2; conditions: remark: other sources report otherwise
T1 chain: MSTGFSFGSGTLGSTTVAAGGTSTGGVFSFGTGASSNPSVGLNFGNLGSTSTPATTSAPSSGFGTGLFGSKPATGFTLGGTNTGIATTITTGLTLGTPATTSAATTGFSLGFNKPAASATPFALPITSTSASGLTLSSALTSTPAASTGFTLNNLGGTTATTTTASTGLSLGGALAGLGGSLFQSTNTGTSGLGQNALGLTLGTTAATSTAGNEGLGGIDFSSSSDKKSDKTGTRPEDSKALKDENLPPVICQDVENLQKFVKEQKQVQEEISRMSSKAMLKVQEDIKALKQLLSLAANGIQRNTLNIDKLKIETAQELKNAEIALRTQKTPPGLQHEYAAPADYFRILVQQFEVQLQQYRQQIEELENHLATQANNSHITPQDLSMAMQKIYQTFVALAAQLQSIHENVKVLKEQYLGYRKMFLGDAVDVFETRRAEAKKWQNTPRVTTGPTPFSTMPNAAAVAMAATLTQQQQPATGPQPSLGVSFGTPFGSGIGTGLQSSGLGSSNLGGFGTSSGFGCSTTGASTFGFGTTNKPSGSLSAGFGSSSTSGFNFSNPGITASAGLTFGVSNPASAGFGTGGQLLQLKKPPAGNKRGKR

## GFP-Nup98 FG-domain (Nup98 1-499) (from UniProt P52948 1-499) (domain or fragment)
[1]
  binding: binds

## GFP-Nup214 FG-domain (Nup214 1210-2090) (from UniProt P35658 1210-2090) (domain or fragment)
[2]
  binding: no binding

## GFP-Pom121 (from UniProt Q96HA1 1-1249)
GFP-Pom121 (human)
  binding: no binding

B1: GFP-Nup42 (protein, UniProt O15504 1-423)
chain: MAICQFFLQGRCRFGDRCWNEHPGARGAGGGRQQPQQQPSGNNRRGWNTTSQRYSNVIQPSSFSKSTPWGGSRDQEKPYFSSFDSGASTNRKEGFGLSENPFASLSPDEQKDEKKLLEGIVKDMEVWESSGQWMFSVYSPVKKKPNISGFTDISPEELRLEYHNFLTSNNLQSYLNSVQRLINQWRNRVNELKSLNISTKVALLSDVKDGVNQAAPAFGFGSSQAATFMSPGFPVNNSSSDNAQNFSFKTNSGFAAASSGSPAGFGSSPAFGAAASTSSGISTSAPAFGFGKPEVTSAASFSFKSPAASSFGSPGFSGLPASLATGPVRAPVAPAFGGGSSVAGFGSPGSHSHTAFSKPSSDTFGNSSISTSLSASSSIIATDNVLFTPRDKLTVEELEQFQSKKFTLGKIPLKPPPLELLNV
GFP-Nup42 (human)
  binding: binds

B2: GFP-Nup58, Q9BVL2 1-599 (protein)
chain: MSTGFSFGSGTLGSTTVAAGGTSTGGVFSFGTGASSNPSVGLNFGNLGSTSTPATTSAPSSGFGTGLFGSKPATGFTLGGTNTGIATTITTGLTLGTPATTSAATTGFSLGFNKPAASATPFALPITSTSASGLTLSSALTSTPAASTGFTLNNLGGTTATTTTASTGLSLGGALAGLGGSLFQSTNTGTSGLGQNALGLTLGTTAATSTAGNEGLGGIDFSSSSDKKSDKTGTRPEDSKALKDENLPPVICQDVENLQKFVKEQKQVQEEISRMSSKAMLKVQEDIKALKQLLSLAANGIQRNTLNIDKLKIETAQELKNAEIALRTQKTPPGLQHEYAAPADYFRILVQQFEVQLQQYRQQIEELENHLATQANNSHITPQDLSMAMQKIYQTFVALAAQLQSIHENVKVLKEQYLGYRKMFLGDAVDVFETRRAEAKKWQNTPRVTTGPTPFSTMPNAAAVAMAATLTQQQQPATGPQPSLGVSFGTPFGSGIGTGLQSSGLGSSNLGGFGTSSGFGCSTTGASTFGFGTTNKPSGSLSAGFGSSSTSGFNFSNPGITASAGLTFGVSNPASAGFGTGGQLLQLKKPPAGNKRGKR
[3]
  binding: no binding
